## Results of single-concentration screens

T. brucei: 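Whole-parasite assay of Trypanosoma brucei over 72 hours; the read-out is not stated. Tested at 30 µM. Direction is inferred from retests: higher values go with stronger inhibition. Values scatter widely below zero; nearly all retest evidence comes from the higher of the two concentrations used. Size under these conditions: about 64,000 compounds, about 940 of them at 50% or above in at least one test.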
Toxoplasma: 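Assay of Toxoplasma gondii numbers, read through their beta-galactosidase reporter with a colour substrate. Compounds at 10 µM. The record gives no direction; the compounds picked for IC50 retests had high values, so higher reads as fewer parasites. About 67,000 compounds were tested under these conditions; 0.38% (about 260) showed 50% or more at least once.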

Values are the deposited “Percent Effect”, in %.
The record does not define 0% and 100%; most values in the screen are far below 50% and negative numbers occur (in some assays of this library far below -100).
The compounds are a random part of those screened.
A dash means the value is not listed here; it may have been measured.

| compound | T. brucei | Toxoplasma |
|---|---|---|
| `O=C(Nc1cc(C(F)(F)F)c[nH]c1=O)C1CCCO1` (configuration not stated) | -17.07% | - |
| `Cc1ccccc1C(=O)N1CCOC(c2ncc(CN(C)C)[nH]2)C1` (configuration not stated) | -3.348% | -10.91% |
| `CCn1cc(CN(C)S(=O)(=O)c2ccccc2)cn1` | -12.21% | 61.21% |
| `COc1ccc(-c2n[nH]cc2CN(C)CCC2CCOCC2)cc1F` | - | 4.235% |
| `COc1cccc(CN2CCN(Cc3ccc4nonc4c3)CC2=O)c1` | -33.49% | 3.812% |
| `CCCN1CCC(NN2CCN(C)CC2)CC1` | 2.796% | -2.017% |
| `Cc1nn(C(C)C)c(C)c1S(=O)(=O)Nc1cccc(C(=O)O)c1` | -13.23% | 15.85% |
| `Cn1ccnc1CN1CCC2(CC1)CC(NC(=O)c1ccccn1)CO2.O=C(O)C(F)(F)F` (configuration not stated) | 14.94% | -5.1% |
| `O=S(=O)(CCc1ccccc1)Cc1nc(C2CC2)no1` | -7.951% | -0.8221% |
| `O=C(NC1CCc2nccn2C1)c1ccc(NC2CC2)nc1` (configuration not stated) | -29.94% | 2.197% |
| `CC(C)SCC(=O)N1CCc2c(nc(N(C)C)nc2N(C)C)C1` | 2.326% | -2.753% |
| `N#Cc1cccc(OCC(=O)N(Cc2ccncc2)C2CC2)c1` | -38.87% | -9.613% |
| `Cc1cccnc1CC(C)NC1Cc2ccccc2C1` (configuration not stated) | -42.93% | 4.438% |
| `CC1CN(C(=O)NCCc2nc(C(C)C)no2)CCO1` (configuration not stated) | -19.02% | 9.41% |
| `CC(C)Oc1ccc(CN)c(C(F)(F)F)c1` | -14.15% | -1.411% |
| `Cc1cc(C[C@@H]2CCC[C@H]2NCc2ccccc2F)on1.O=C(O)CC(O)(CC(=O)O)C(=O)O` | 34.89% | 1.178% |
| `COc1cccc(CNC(C)Cn2cccn2)c1OC.Cl` (configuration not stated) | 7.528% | -0.7411% |
| `Cc1nc(C)n(CC2CCCN(CCCOc3ccccc3)C2)n1` (configuration not stated) | 23.99% | 0.9561% |
| `CCN(Cc1cccc(-c2ccncc2)c1)S(N)(=O)=O` | -18.64% | 30.53% |
| `Cc1ccc(C)c(OCC(=O)NC2CCN(c3ccccn3)CC2)c1` | 0.8504% | 8.615% |
| `COC(=O)CN(C(=O)c1ccc(-n2ccnc2)cc1)C1CCCC1` | -30.58% | 3.831% |
| `CC(C)Oc1ncnc2c1CCN(C(=O)c1cccn1C)CC2` | -6.296% | -1.165% |
| `[H][C@@]12COC[C@H](C(=O)NC3CC3)[C@]1([H])CN(c1ncc(F)cn1)C2` | -36.98% | 2.074% |
| `O=C(CNCCn1cccn1)NCC1(c2ccccc2)CC1` | 28.19% | -4.548% |
| `Cc1cc(C)n(-c2ccc3nnc(C)n3n2)n1` | -12.67% | -4.193% |
| `O=C1NCCN1C1CCCN(Cc2coc(-c3ccc(F)cc3)n2)C1` (configuration not stated) | -6.917% | 17.56% |
| `O=C(O)C(F)(F)F.[H][C@@]12CN(Cc3cccs3)C[C@]1([H])C(=O)N(c1ccsc1)C2` | 27.72% | -12.76% |
| `CCOc1ccc(CC(CNC(=O)c2ccco2)C(N)=O)cc1` (configuration not stated) | 4.813% | 3.822% |
| `Cc1oc(-c2ccsc2)nc1CC(=O)NCCCS(C)(=O)=O` | -42.43% | 34.38% |
| `CCN1CCCCC1C(=O)N1CCN(C(=O)OC)CC1` (configuration not stated) | -19.52% | - |
| `Cc1cc(S(=O)(=O)N2CCCc3cc(Cl)ccc32)sc1C(=O)O` | -40.43% | 6.163% |
| `Fc1cccc(CN2CCOC3(COCCN(CC4CC4)C3)C2)c1.O=C(O)C(F)(F)F.O=C(O)C(F)(F)F` (configuration not stated) | -50.27% | -3.2% |
| `CCOCC1CN(S(=O)(=O)CC)Cc2cnn(CC3CC3)c21.O=C(O)C(F)(F)F` (configuration not stated) | -4.487% | -5.695% |
| `CCNc1cc2c(nn1)CCN(C(=O)CCc1c(C)noc1Cl)C2` | -9.309% | -2.517% |
| `COC(=O)N1CCCC(NC(=O)NCc2nc(C)cs2)C1` (configuration not stated) | -16.35% | -32.9% |
| `CCOc1cc(C(=O)N2CCCC(c3noc(C)n3)C2)ccn1` (configuration not stated) | 3.62% | 0.8161% |
| `CC(Oc1ccccc1)C(=O)N1CCCN(Cc2nccn2C)CC1` (configuration not stated) | -20.89% | 1.28% |
| `O=S(=O)(NCCCn1ccc2ccccc21)N1CCCCC1` | -27.09% | -2.294% |
| `CCCc1nnc(NC(=O)Cc2c(C)nc(C)[nH]c2=O)s1` | - | -6.957% |
| `CCN1CCC2(C=C(C(=O)N(C)C)c3ccccc32)CC1.O=C(O)C(F)(F)F` | -86.46% | 0.8336% |
| `CC1(C)CC(N2CCN(C3CCCC3)C(CCO)C2)CC(C)(C)C1` (configuration not stated) | -18.86% | -17.21% |
| `CC[C@H]1CN(S(C)(=O)=O)CC[C@H]1CC(=O)NCCSC` | -10.11% | -4.659% |
| `COCC1CN(Cc2ccc(C)o2)Cc2nnn(C)c21.O=C(O)C(F)(F)F` (configuration not stated) | -48.8% | -0.3014% |
| `O=C(O)C(F)(F)F.[H][C@]12CCC[C@@H](CN(C)C)[C@@]1([H])CN(c1cc(OC)ncn1)C2` | 34.54% | -9.353% |
| `COc1coc(C(=O)Nc2nc(-c3ccncc3)cs2)cc1=O` | -9.752% | -19.14% |
| `[H][C@@]12CN(C(=O)[C@H]3CCCO3)C[C@]1([H])C(=O)N(Cc1cccc(C)c1)C2` | 3.05% | 2.323% |
| `Cc1cnc(C(=O)N2CCCCC2c2[nH]ncc2S(C)(=O)=O)cn1` (configuration not stated) | 45.69% | -10.97% |
| `COCc1noc(-c2nn(-c3ccccc3F)c3c2CCC3)n1` | 5.334% | 3.593% |
| `Cc1nc(CN2CCC3(CCN(Cc4nccn4C)CC3)C2=O)cs1.O=C(O)C(F)(F)F.O=C(O)C(F)(F)F` | -13.64% | 13.9% |
| `CC[C@@]1(O)CCN(C(=O)c2ccc(-c3cccc(F)c3)cc2)C[C@H]1O` | 25.82% | -5.234% |
| `Cc1noc(C)c1C(=O)N1CCC(n2cccn2)CC1` | -5.025% | 2.065% |
| `CCn1nc(C)c2nc(C(C)C)nc(N3CCC(O)CC3)c21` | - | 11.24% |
| `Cc1cccc2c1nc1n2[C@@H](CNC(=O)NC(C)C)COC1` | -8.301% | -12.72% |
| `O=C(COCC1CC1)NCC(c1ccccc1)N1CCc2sccc2C1` (configuration not stated) | 23.53% | 20.25% |
| `COc1cc(OC)c(-n2nnc(C(=O)O)c2C)cc1Cl` | -19.02% | -7.172% |
| `O=C(NC1CC1)C(c1ccccc1)N1CCN(Cc2ccc(Cl)s2)CC1` (configuration not stated) | - | 20.03% |
| `c1ccc(CCCN2CCN(c3ccc4nncn4n3)CC2)cc1` | - | 12.74% |
| `Cn1cncc1CN1CCC2(CCCN2c2ncccn2)CC1.O=C(O)C(F)(F)F` | - | -3.976% |
| `COc1cccc(-c2nc3c([nH]2)CCNC3)c1F` | -4.406% | -6.268% |
| `CCOc1ccc(C(=O)CCC(=O)N(C)Cc2snnc2C)cc1C` | 9.611% | -4.287% |
| `Cn1nc(CC(C)(C)C)cc1NC(=O)c1ccc(CNC(N)=O)cc1` | -113.1% | 0.3245% |
| `Cc1nc(N(C)C)nc2c1COCC21CCN(CC2CC2)C1.O=C(O)C(F)(F)F` (configuration not stated) | -21.73% | 4.086% |
| `CCN(CC)C(=O)CSc1nnc(CCNC(=O)OC(C)(C)C)o1` | -20.4% | 29.44% |
| `CCN1CC2(CCC1=O)CCN(C(=O)c1ccc(Cl)cc1O)CC2` | -5.293% | 11.11% |
| `O=C(O)C(F)(F)F.O=C(O)C(F)(F)F.[H][C@@]12CN(CC3CCOCC3)C[C@]1([H])OCCN2CC(=O)NC` | -15.03% | 5.2% |

Once more, the final 5:

compound	T. brucei	Toxoplasma
Cn1nc(CC(C)(C)C)cc1NC(=O)c1ccc(CNC(N)=O)cc1	-113.1%	0.3245%
Cc1nc(N(C)C)nc2c1COCC21CCN(CC2CC2)C1.O=C(O)C(F)(F)F (configuration not stated)	-21.73%	4.086%
CCN(CC)C(=O)CSc1nnc(CCNC(=O)OC(C)(C)C)o1	-20.4%	29.44%
CCN1CC2(CCC1=O)CCN(C(=O)c1ccc(Cl)cc1O)CC2	-5.293%	11.11%
O=C(O)C(F)(F)F.O=C(O)C(F)(F)F.[H][C@@]12CN(CC3CCOCC3)C[C@]1([H])OCCN2CC(=O)NC	-15.03%	5.2%

The values are deposited in ChEMBL (CHEMBL3988442, “University of Dundee, Small-Polar-MMV Screening Library” (2021)).